{
  "source": "PubChem BioAssay AID1688",
  "about": "(National Center for Advancing Translational Sciences (NCATS), 2009)",
  "note": "Screen size: about 220,000 compounds; about 2,400 (1.1%) were called active. This list was built around the results that the source calls inconclusive (neither active nor inactive); the mix of calls is not that of the screen. The call rests on the fitted dose curve; in most records, active means well fitted inhibition curve with a large enough effect; inconclusive means small, poorly fitted or top-dose-only effect, or effect the other way; inactive means no such curve, though single readings can be large or run the other way. A potency beside an inconclusive call is a rough fit, not a confirmed value. On the % scale 0 is the no-effect control and ±100 the full control effect; potency means the concentration at half of the fitted maximal effect.",
  "data": [
    {"experiment": "qHTS Multiplex Assay to Identify Dual Action Probes in a Cell Model of Huntington: Aggregate Formation (GFP); further: nearly all actives have a fitted effect of over 60% in size", "conditions": "PC12 HttQ103-GFP aggregates, Acumen cytometry, 40 h; activity change, negative = inhibition: at 46.1 µM (top of the series) unless noted", "how_it_was_run": "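Multiplexed with ATP-based cell death, this channel scores GFP aggregates in PC12 cells expressing inducible HTTex1-Q103-GFP. Induction used 100 nM tebufenozide; compounds were tested in concentration series.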", "values": [
      {"smiles": "CCc1ccc(OCCNC(=O)c2cccs2)cc1", "Potency": "inconclusive: 22.4 µM [inhibitor, single point]"},
      {"smiles": "CCC(C)NC(=O)C1c2ccccc2C(=O)N(c2ccc(OC)cc2)C1c1ccc(OC)cc1", "note": "(configuration not stated)", "Potency": "inconclusive: 0.631 µM [inhibitor, full curve]"},
      {"smiles": "CCCOc1ccc(Cn2cnc3ccccc32)cc1", "Potency": "active: 25.1 µM"},
      {"smiles": "COc1ccc(OC)c(C(c2nnnn2C2CCCC2)N2CCN(c3ccccc3)CC2)c1", "note": "(configuration not stated)", "Potency": "inconclusive: 25.1 µM [inhibitor, single point]"},
      {"smiles": "NC(=O)c1cc2ccccc2oc1=NCc1ccccc1", "activity change, negative = inhibition": "inactive: -8.62%"},
      {"smiles": "CCCCCCCCCCCCCC(=O)OC(C)C", "activity change, negative = inhibition": "inactive: 31.4%"},
      {"smiles": "Cc1cc(C=O)c(C)n1-c1cc(C(=O)O)cc(C(=O)O)c1", "Potency": "inconclusive: 0.501 µM [activator, full curve, poor fit]"},
      {"smiles": "COc1ccccc1N/C(=N/S(=O)(=O)c1ccc(C)cc1)c1ccc(Cl)cc1", "Potency": "inconclusive: 14.1 µM [inhibitor, single point]"},
      {"smiles": "Cc1cc(C(=O)N2CCOCC2)c(C)o1", "Potency": "inconclusive: 3.55 µM [activator, partial curve]"},
      {"smiles": "Cn1c(Cn2cnc3ccccc32)nnc1SCc1ccccc1", "Potency": "inconclusive: 11.2 µM [inhibitor, single point]"},
      {"smiles": "Cc1cccc(NC(=O)CSc2nnc([C@@H]3CCCN3C(=O)OC(C)(C)C)o2)c1C", "activity change, negative = inhibition": "inactive: 12.9%"},
      {"smiles": "CCOc1cc(C)c(Cl)cc1S(=O)(=O)n1cnc2ccccc21", "Potency": "inconclusive: 1.26 µM [activator, full curve, poor fit]"},
      {"smiles": "CCC(C)NC(=O)Cn1c(=O)n(CCCCCC(=O)Nc2ccccc2)c(=O)c2sccc21", "note": "(configuration not stated)", "activity change, negative = inhibition": "inactive: -1.26%"},
      {"smiles": "O=C(Nc1ncc(Cc2cccc(Cl)c2)s1)c1cccs1", "Potency": "inconclusive: 35.5 µM [inhibitor, single point]"},
      {"smiles": "O=C(Nc1ccc(Cl)c(C(F)(F)F)c1)c1ccco1", "Potency": "inconclusive: 25.1 µM [inhibitor, partial curve]"},
      {"smiles": "COCCCNC(=S)Nc1ccc2c(c1)OCCO2", "activity change, negative = inhibition": "inactive: -11.3%"},
      {"smiles": "N#C/C(=C(/O)COc1ccccc1)c1nc2ccccc2s1", "Potency": "inconclusive: 12.6 µM [inhibitor, single point]"},
      {"smiles": "CCOC(=O)C1CCCN(CC(=O)Nc2cc(C)cc(C)c2)C1", "note": "(configuration not stated)", "activity change, negative = inhibition": "inactive: 8.78%"},
      {"smiles": "CC(NC(=O)c1ccco1)C(c1cccs1)N1CCN(c2ccc(F)cc2)CC1", "note": "(configuration not stated)", "Potency": "inconclusive: 10 µM [inhibitor, partial curve]"},
      {"smiles": "COc1ccc(C(=O)COc2ncnc3cc(Cl)ccc23)cc1", "activity change, negative = inhibition": "inactive: 6.58% [at 9.22 µM]"},
      {"smiles": "S=C(Nc1cccc(Cl)c1)Nc1cccc2cnccc12", "Potency": "inconclusive: 3.98 µM [inhibitor, single point]"},
      {"smiles": "Cc1cc(C)n(-c2ccc(C(=O)Nc3ccc(S(=O)(=O)NCc4ccco4)cc3)cc2)n1", "Potency": "inconclusive: 12.6 µM [inhibitor, single point]"},
      {"smiles": "CCC(=O)C1=C(O)C(c2cccc(Oc3ccccc3)c2)CCC1=O", "note": "(configuration not stated)", "Potency": "active: 10 µM"},
      {"smiles": "O=C(N/N=C/c1ccc(O)cc1)c1csc2c1CCCC2", "Potency": "inconclusive: 35.5 µM [inhibitor, single point]"},
      {"smiles": "CCOC(=O)CSCC(NC(=O)OC(C)(C)C)C(=O)OCC", "note": "(configuration not stated)", "Potency": "inconclusive: 5.62 µM [inhibitor, single point]"},
      {"smiles": "COc1ccc(-c2nc3ccc([N+](=O)[O-])cc3[nH]2)cc1", "Potency": "inconclusive: 15.8 µM [inhibitor, single point]"},
      {"smiles": "Cc1cc(C)cc(Cn2ncc(Cl)c(Cl)c2=O)c1", "Potency": "inconclusive: 35.5 µM [inhibitor, single point]"},
      {"smiles": "CCCC(=O)NC(NC(=S)Nc1ccc(N=Nc2ccccc2)cc1)C(Cl)(Cl)Cl", "note": "(configuration not stated)", "Potency": "inconclusive: 12.6 µM [inhibitor, partial curve, poor fit]"},
      {"smiles": "CC(=O)Nc1ccc(OCC=C(Cl)Cl)cc1", "Potency": "inconclusive: 1.26 µM [inhibitor, single point]"},
      {"smiles": "CC(Sc1nc2ccccc2s1)C(=O)NC1CCCc2ccccc21", "note": "(configuration not stated)", "Potency": "inconclusive: 1.26 µM [inhibitor, single point]"},
      {"smiles": "CCOCCCn1c(C)nc2c(c1=O)c1nc3ccccc3nc1n2CCC1=CCCCC1", "Potency": "inconclusive: 35.5 µM [inhibitor, single point]"},
      {"smiles": "O=c1oc2ccccc2c(Nc2ccccc2)c1[N+](=O)[O-]", "Potency": "inconclusive: 3.55 µM [activator, single point]"},
      {"smiles": "COC(=O)Nc1nc(-c2ccccc2)c(C(=O)c2ccccc2)s1", "Potency": "inconclusive: 1.12 µM [inhibitor, full curve]"},
      {"smiles": "CCc1cc(-c2n[nH]c(C)c2-c2nc3ccccc3n2C)c(O)cc1O", "activity change, negative = inhibition": "inactive: -1.43% [at 9.22 µM]"},
      {"smiles": "O=c1cc(CSc2nnnn2-c2ccc(O)cc2)nc2sccn12", "Potency": "inconclusive: 0.562 µM [activator, full curve, poor fit]"},
      {"smiles": "CN(C)c1ccc(-c2nc3n(n2)C(c2cccnc2)C2=C(CC(C)(C)CC2=O)N3)cc1", "note": "(configuration not stated)", "activity change, negative = inhibition": "inactive: -1.78%"},
      {"smiles": "O=C(CSc1nnc(Cc2ccccc2)n1Cc1ccco1)NC1CCCC1", "activity change, negative = inhibition": "inactive: 2.48%"},
      {"smiles": "NC1=NC(=O)/C(=C\\c2cccnc2)S1", "Potency": "active: 8.91 µM"},
      {"smiles": "CCCCNC1=C(Br)C(=O)CC(C)(C)C1", "Potency": "inconclusive: 7.94 µM [inhibitor, partial curve]"},
      {"smiles": "Cc1ccccc1C(=O)NCc1nnc(SCC(=O)N2CCN(c3ccccc3)CC2)n1C", "activity change, negative = inhibition": "inactive: 7.16%"},
      {"smiles": "O=c1c2ccccc2nc(SCc2cc(=O)n3ccsc3n2)n1CCCO", "Potency": "inconclusive: 35.5 µM [activator, single point]"},
      {"smiles": "Cc1noc2c1C(c1ccc(N(C)C)cc1)C1=C(CC(C)(C)CC1=O)N2", "note": "(configuration not stated)", "Potency": "inconclusive: 35.5 µM [activator, single point]"},
      {"smiles": "Cc1ccc2nc(NC(=O)CCNS(=O)(=O)c3cccs3)sc2c1", "Potency": "inconclusive: 31.6 µM [inhibitor, single point]"},
      {"smiles": "CCCOc1cc(N(CC)CC)ccc1/C=C(/C#N)c1nc2ccc(C)cc2[nH]1", "Potency": "inconclusive: 31.6 µM [inhibitor, single point]"},
      {"smiles": "CC1CC(C)CN(CC(O)COCCOc2ccc(Br)cc2)C1", "note": "(configuration not stated)", "activity change, negative = inhibition": "inactive: 6.21%"},
      {"smiles": "COc1ccccc1N1CCN(C(=O)c2sc3nc(-c4ccccc4)cn3c2C)CC1", "Potency": "inconclusive: 35.5 µM [inhibitor, single point]"},
      {"smiles": "CCN1CCN(C(=O)c2ccccc2NS(=O)(=O)c2ccc(Cl)cc2)CC1", "activity change, negative = inhibition": "inactive: 9.23%"},
      {"smiles": "CC(=O)NS(=O)(=O)c1ccc(N=c2ssc3c2-c2cc(C)ccc2NC3(C)C)cc1", "Potency": "inconclusive: 35.5 µM [activator, single point]"},
      {"smiles": "CSc1nc2ccc(S(=O)(=O)N3CCCCC3)cc2s1", "activity change, negative = inhibition": "inactive: -13.7%"},
      {"smiles": "Cc1ccc(-n2nc(C)c(C3(O)C(=O)N(C)c4ccccc43)c2N)cc1", "note": "(configuration not stated)", "Potency": "inconclusive: 5.62 µM [inhibitor, single point]"},
      {"smiles": "CCc1ccc(OCCCC(=O)Nc2ccc(S(N)(=O)=O)cc2)cc1", "activity change, negative = inhibition": "inactive: 8.26% [at 9.22 µM]"},
      {"smiles": "C=CCNCC(=O)N1N=C(c2ccc3ccccc3c2)CC1c1ccc(OC)cc1", "note": "(configuration not stated)", "Potency": "active: 12.6 µM"},
      {"smiles": "O=c1oc2ccccc2c(O)c1/C=N/c1ncccn1", "activity change, negative = inhibition": "inactive: 6.82%"},
      {"smiles": "CCN(CC)S(=O)(=O)c1ccc(NC(=O)Nc2cccc(C(F)(F)F)c2)cc1", "Potency": "active: 15.8 µM"},
      {"smiles": "Cc1ccc(N/C=C/c2onc(C)c2[N+](=O)[O-])cc1", "activity change, negative = inhibition": "inactive: 8.97% [at 9.22 µM]"},
      {"smiles": "O=C(Nc1ccccc1)Nc1ccc2snnc2c1", "Potency": "active: 11.2 µM"},
      {"smiles": "COc1ccc(Nc2nnc(-c3ccccc3)c3ccccc23)cc1C(=O)N1CCCCC1", "Potency": "inconclusive: 12.6 µM [inhibitor, partial curve]"},
      {"smiles": "CCN(c1ccccc1)S(=O)(=O)c1ccc(NC(=S)NC(=O)c2cccs2)cc1", "Potency": "inconclusive: 35.5 µM [inhibitor, single point]"},
      {"smiles": "CCOC(=O)C1=C(CN2CCc3ccccc32)NC(=O)NC1c1cccc([N+](=O)[O-])c1", "note": "(configuration not stated)", "Potency": "inconclusive: 8.91 µM [inhibitor, partial curve]"},
      {"smiles": "COC(=O)CN1C(=O)C2(C(C#N)=C(N)Oc3n[nH]c(-c4cccs4)c32)c2ccccc21", "note": "(configuration not stated)", "activity change, negative = inhibition": "inactive: 8.26%"},
      {"smiles": "O=C(c1cc2c(ccc3ccccc32)oc1=O)N1CCN(CCO)CC1", "Potency": "inconclusive: 35.5 µM [inhibitor, single point]"},
      {"smiles": "COc1ccc(-n2nnc3c(SCC(=O)NCC4CCCO4)ncnc32)cc1", "note": "(configuration not stated)", "Potency": "inconclusive: 35.5 µM [inhibitor, single point]"},
      {"smiles": "Cc1cccc(NC(=O)CSc2nnnn2-c2ccc3c(c2)OCCO3)n1", "Potency": "inconclusive: 5.62 µM [activator, single point]"},
      {"smiles": "COc1ccc(C(=O)NNS(=O)(=O)c2ccccc2)cc1", "Potency": "inconclusive: 5.62 µM [inhibitor, single point]"},
      {"smiles": "Cc1ccc(C)c(CN2CCCN(C(=O)Cn3ncc4c3-c3ccccc3OC4)C2)c1", "activity change, negative = inhibition": "inactive: 0.227%"},
      {"smiles": "Fc1ccc(NC(=S)N2CCN(C/C=C/c3ccccc3)CC2)c(F)c1", "Potency": "inconclusive: 12.6 µM [inhibitor, single point]"},
      {"smiles": "Cc1ccsc1C1C(C#N)=C(N)N(N(C)C)C2=C1C(=O)CCC2", "note": "(configuration not stated)", "activity change, negative = inhibition": "inactive: -0.8%"},
      {"smiles": "CCn1c(=O)cc(SCC(=O)NCc2cccnc2)c2ccccc21", "Potency": "inconclusive: 5.62 µM [inhibitor, single point]"},
      {"smiles": "CCCCSc1nc(N)c(C#N)c(-c2cccs2)c1C#N", "Potency": "active: 35.5 µM"},
      {"smiles": "Cc1ccc(C(=O)c2ccc([N+](=O)[O-])cc2)cc1", "activity change, negative = inhibition": "inactive: -30.5%"},
      {"smiles": "O=C(CCSc1nc2ccccc2s1)N/N=C/c1c(O)ccc2ccccc12", "Potency": "inconclusive: 1.78 µM [inhibitor, full curve, poor fit]"},
      {"smiles": "CC(=O)Nc1ccc(Nc2nc(Cl)nc(Nc3ccc(NC(C)=O)cc3)n2)cc1", "activity change, negative = inhibition": "inactive: -19.1% [at 9.22 µM]"}
    ]}
  ]
}
